In PubChem BioAssay AID1224863 (Southern Research Institute, 2016):
This is one part of the list.

Chains of the proteins cited; added tags and fusions are not shown. A line that says so, or that is headed by a name, gives the form on record, which may keep a tag or linker.
UniProt P13569, with tags, fused parts or gaps F508del: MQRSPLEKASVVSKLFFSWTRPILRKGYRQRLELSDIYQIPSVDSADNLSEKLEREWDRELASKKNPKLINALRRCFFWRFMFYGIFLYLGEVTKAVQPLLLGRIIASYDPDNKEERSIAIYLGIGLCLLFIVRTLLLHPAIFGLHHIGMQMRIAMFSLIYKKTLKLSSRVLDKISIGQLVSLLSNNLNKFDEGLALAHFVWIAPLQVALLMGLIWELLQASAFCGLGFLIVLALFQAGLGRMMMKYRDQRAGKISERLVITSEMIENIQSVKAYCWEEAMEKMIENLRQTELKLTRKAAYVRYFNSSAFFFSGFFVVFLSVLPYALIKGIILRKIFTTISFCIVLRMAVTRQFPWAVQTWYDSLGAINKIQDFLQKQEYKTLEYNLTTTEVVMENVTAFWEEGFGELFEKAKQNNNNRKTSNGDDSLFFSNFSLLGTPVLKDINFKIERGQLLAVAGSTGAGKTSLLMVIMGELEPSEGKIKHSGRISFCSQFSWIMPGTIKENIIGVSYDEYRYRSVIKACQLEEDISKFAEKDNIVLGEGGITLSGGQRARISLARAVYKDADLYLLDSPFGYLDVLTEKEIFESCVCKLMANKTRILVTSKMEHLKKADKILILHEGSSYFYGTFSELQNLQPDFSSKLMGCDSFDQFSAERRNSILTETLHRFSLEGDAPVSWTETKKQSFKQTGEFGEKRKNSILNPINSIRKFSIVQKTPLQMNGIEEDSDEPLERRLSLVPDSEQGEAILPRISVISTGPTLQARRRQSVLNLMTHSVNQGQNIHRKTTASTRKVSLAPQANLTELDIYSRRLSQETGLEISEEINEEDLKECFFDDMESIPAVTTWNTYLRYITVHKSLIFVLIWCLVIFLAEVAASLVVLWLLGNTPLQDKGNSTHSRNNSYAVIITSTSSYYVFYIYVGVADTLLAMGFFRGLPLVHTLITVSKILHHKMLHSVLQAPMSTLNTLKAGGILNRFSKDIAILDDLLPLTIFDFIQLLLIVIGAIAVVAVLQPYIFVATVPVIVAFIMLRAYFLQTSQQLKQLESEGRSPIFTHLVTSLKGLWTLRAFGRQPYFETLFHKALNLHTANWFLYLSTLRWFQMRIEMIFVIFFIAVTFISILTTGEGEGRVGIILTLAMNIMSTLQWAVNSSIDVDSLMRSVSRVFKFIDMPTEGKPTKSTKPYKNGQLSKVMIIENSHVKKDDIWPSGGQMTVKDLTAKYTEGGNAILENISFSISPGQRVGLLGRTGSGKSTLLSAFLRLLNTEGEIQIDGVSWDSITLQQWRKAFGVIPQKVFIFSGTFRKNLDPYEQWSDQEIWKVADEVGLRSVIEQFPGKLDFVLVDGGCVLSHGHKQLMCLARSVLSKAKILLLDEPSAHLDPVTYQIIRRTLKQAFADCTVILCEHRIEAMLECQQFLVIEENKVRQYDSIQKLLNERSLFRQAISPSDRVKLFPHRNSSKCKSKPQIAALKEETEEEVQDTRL

Legend:
[1] = compounds raising F508del-CFTR protein level – cell-based, HeLa F508del-CFTR, immunofluorescence, viability, primary screen (AID 1224863); settings: immunofluorescence total CFTR, 24 h, measured here: primary viability 10 ug/mL, library dosed in µg/mL, stronger effect = higher value;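 as to fold increase: total CFTR protein by anti-CFTR immunofluorescence in fixed cells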
[2] = biological target: Cystic fibrosis transmembrane conductance regulator (Homo sapiens) (UniProt P13569); experiment: as above; settings: immunofluorescence total CFTR, 24 h, measured here: primary screen 10 ug/mL, library dosed in µg/mL, stronger effect = higher value

| Structure (SMILES) | viability [1] [%] | fold increase [2] |
| --- | --- | --- |
| CC(C)(C)n1nc(C(=O)NCC2(N3CCOCC3)CCCCC2)cc1C1CC1 | 94 | 0.94 |
| Cc1cc(C(=O)NCC2(N3CCOCC3)CCCCC2)c(C)o1 | 98 | 1 |
